Experimental data published in article PMC2567001.
These are yes or no findings as the source states them, for the method shown. Some binding calls cover weakened binding; strength is not graded here.

The chains behind the UniProt entries cited, without tags or fusion partners.
UniProt Q24368: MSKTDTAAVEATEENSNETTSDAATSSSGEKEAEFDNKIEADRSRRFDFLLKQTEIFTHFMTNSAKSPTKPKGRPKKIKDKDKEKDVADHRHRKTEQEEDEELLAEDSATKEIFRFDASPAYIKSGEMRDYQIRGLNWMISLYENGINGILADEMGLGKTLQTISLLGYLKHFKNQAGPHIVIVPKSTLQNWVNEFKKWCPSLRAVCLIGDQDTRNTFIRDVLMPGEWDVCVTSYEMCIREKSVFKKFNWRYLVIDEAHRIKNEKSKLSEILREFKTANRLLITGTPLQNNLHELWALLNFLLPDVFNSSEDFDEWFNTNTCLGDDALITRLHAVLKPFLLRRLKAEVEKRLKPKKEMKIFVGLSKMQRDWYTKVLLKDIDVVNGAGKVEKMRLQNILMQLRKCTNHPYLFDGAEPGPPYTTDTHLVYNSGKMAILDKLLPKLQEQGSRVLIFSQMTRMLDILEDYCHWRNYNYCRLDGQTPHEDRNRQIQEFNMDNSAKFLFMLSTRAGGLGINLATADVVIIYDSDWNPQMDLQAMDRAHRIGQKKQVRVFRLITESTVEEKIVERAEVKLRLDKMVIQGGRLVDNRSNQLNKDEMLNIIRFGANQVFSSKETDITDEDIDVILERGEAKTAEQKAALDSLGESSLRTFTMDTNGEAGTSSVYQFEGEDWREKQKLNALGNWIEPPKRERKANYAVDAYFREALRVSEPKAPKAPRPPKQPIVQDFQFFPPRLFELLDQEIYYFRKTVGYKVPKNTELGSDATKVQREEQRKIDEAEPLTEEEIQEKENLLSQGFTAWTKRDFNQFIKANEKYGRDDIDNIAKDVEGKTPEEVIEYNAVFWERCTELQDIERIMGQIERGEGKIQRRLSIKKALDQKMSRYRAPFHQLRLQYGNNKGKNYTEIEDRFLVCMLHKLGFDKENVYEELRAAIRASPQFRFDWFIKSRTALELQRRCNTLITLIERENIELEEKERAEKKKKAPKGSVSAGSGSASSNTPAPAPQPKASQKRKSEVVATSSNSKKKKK
UniProt P09874: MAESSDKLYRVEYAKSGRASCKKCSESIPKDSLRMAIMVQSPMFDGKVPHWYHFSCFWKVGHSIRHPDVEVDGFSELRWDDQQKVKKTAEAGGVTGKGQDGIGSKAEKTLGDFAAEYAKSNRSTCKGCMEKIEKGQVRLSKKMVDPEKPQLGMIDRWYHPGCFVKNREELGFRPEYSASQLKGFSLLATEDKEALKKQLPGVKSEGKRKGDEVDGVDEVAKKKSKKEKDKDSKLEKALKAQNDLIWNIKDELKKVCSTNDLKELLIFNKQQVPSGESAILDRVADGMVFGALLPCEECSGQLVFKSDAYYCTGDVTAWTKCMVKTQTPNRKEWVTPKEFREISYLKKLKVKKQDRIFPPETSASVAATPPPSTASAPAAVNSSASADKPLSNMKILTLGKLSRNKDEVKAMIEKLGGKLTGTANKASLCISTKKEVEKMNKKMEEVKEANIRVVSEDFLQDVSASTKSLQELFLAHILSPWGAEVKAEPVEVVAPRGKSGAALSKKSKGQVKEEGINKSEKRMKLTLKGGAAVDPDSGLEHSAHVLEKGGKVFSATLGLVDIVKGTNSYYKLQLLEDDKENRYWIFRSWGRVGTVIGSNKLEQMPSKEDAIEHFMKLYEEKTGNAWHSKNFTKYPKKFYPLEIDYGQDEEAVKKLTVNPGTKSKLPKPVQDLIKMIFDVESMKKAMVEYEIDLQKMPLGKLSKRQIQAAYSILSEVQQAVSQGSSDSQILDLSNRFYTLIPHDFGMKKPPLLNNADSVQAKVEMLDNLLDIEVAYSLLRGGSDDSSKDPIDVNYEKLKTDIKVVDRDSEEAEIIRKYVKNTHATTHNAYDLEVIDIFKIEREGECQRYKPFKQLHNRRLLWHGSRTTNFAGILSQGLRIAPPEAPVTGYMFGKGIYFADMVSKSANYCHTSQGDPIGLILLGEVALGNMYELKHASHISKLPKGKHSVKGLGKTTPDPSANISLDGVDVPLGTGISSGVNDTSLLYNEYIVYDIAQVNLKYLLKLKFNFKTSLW

How the values were obtained:
[1] = molecular target: FLAG-epitope tagged recombinant ISWI (Drosophila melanogaster) (UniProt Q24368); assay: pull-down; as the pull-down without DNA, but with activated DNA (Trevigen) in the binding reaction: PARP is stimulated, PARP self-PARylates and ISWI is PARylated; 15 min at 25 °C; Anti-FLAG M2 affinity gel; both purified
[2] = molecular target: FLAG-epitope tagged recombinant ISWI (Drosophila melanogaster) (UniProt Q24368); assay: pull-down; 8 nmol FLAG-ISWI incubated with 8 nmol purified PARP-1 in 1X PARP cocktail, 100 mM Tris-HCl pH 8, 1 mM MgCl2, 1 mM DTT, without activated DNA, 15 min at 25 °C; FLAG-ISWI pulled down with Anti-FLAG M2 affinity gel; Western blot with aISWI and aPARP; both purified

binding [1]: binds weakly
binding [2]: binds
Substance: purified PARP-1 (Trevigen) (from UniProt P09874 1-1014) (enzyme)
